Hit rate of the full screen: of about 53,000 sequences, about 3,700 (7%) were called active.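 The calls were made as follows: active = gene knockdowns whose robust z-score for IL-1 alpha signal is at least 2 or at most -2, so actives lie on both sides; inactive = the rest.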 Some of the results follow.

A short description of the test: Components of the Cytosolic LPS Sensing Pathway: Gene Identification via Genome-wide siRNA Screen.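 Also: robust z of the log signal after scaling to non-targeting control siRNA wells of the plate.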 Conditions: RAW264.7 macrophages, IL-1a HTRF, actives lie on both sides, screened at 100 nM (by protocol), cells primed 5 h with Pam3CSK4 first. The procedure, abridged: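 Mouse macrophage line RAW264.7 is transfected with siRNA (100 nM final), grown 48h, primed with TLR ligand Pam3CSK4 5 h and given intracellular LipidA 24 h. IL-1a in supernatant is read by HTRF and viability by luminescence.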
(Time-resolved FRET reads energy transfer from a long-lived donor to a nearby acceptor.)
On to CGAGUGAACGUGAAAAAUGTT against Myl2, for which the z-score is inactive: 1.79.

For the sequence GGGUGAUGCAGAUCAUCGUTT against Prkcq, the z-score is inactive: -0.465.

Consider CGAGCGACUGAAAAGAUAATT against Atad3a, for which the z-score was inactive: -0.412.

For the sequence CCUUAUUGGAUCUUGUUCGTT against Catsperb, the z-score was inactive: 0.633.

Take GCCACGUCUGAACACUUCATT against Vamp8: the z-score is inactive: 0.873.

With GCUAAUCAGGUAGUAAUUCTT against Usp9y, the z-score is inactive: -0.156.

As to GGAAGACAACAAAAGGAUGTT against Ankrd36, the z-score is inactive: 0.451.

With GCAUUCGUCAAAUAUUAUCTT against Fanci, the z-score was inactive: 1.33.

Regarding GCGAAUCUUGCUUCUGACCTT against H4c8, the z-score is active: -2.13.

Consider GGCCUUUGCUGUGAUGCUGTT against Ormdl3, for which the z-score was inactive: 0.185.

GCCUAUUCGGAUUAUUGAUTT against Gab1: the z-score is inactive: -1.22.

With GGAGCUACCUGCAUGAUGATT against Spaca6, the z-score is inactive: -0.361.

Take GGCAGAAACUAAGAAUGAATT against Mx1: the z-score is inactive: -0.292.

Consider GGCUCUGACGCAGAUCCAATT against Nifk, for which the z-score was inactive: -0.288.

As for GGAACUUGAGUUGCUACAGTT against Il12rb1, the z-score is inactive: -1.25.

Regarding GGACUCGAACUCAGAACCATT against Gdf15, the z-score is inactive: 0.872.

For the sequence GGUGGAAGGACUUACAAUCTT against Hpgds, the z-score is inactive: 1.07.

As to GCCAUGACCGUUCGUGAGUTT against Kdm4a, the z-score was inactive: -0.0631.

For CGACGUAUCCGUUCUAUAATT against Eif2s1, the z-score was inactive: -1.05.

For GGAGGAAGAGGAGAAUCUATT against Supt6, the z-score was active: -2.57.

For GCAAGAUCCGAUUUCUGAUTT against Snrpd3, the z-score was inactive: -1.74.

For GGAGGUGGUAUGUUUUAUATT against Lin54, the z-score is inactive: 1.5.

Turning to GGCCCUCAAUGACAUAAGCTT against Srm, the z-score is inactive: 0.587.

Consider GGACCUCAGUCACUUCCAATT against Etv4, for which the z-score was active: 2.93.

Regarding GGACUAUUUCUUCAAUCCCTT against Wdr62, the z-score was inactive: 0.216.

With GGAGAUCUAGUGAUCUUUUTT against Pank1, the z-score was inactive: 0.427.

On to GGCUUGAUAUUUGUGGUUGTT against Arf3, for which the z-score is inactive: 0.0348.

For the sequence GGCAAGGAAGUCUAAAGAATT against Fbxo8, the z-score was inactive: -1.05.

With GCACUUCGAAGAAAUAAAATT against Ahsa2, the z-score was inactive: 0.396.

As to GGAGUAUAACUAUGGCUUCTT against Mvb12a, the z-score was inactive: 0.689.

Consider GGCUAUGUUUAUAUCAUCGTT against Klhl10, for which the z-score was inactive: 0.275.

In the case of CCACAGCCAUUCGCACAUATT against Exoc4, the z-score was inactive: 1.54.

With GGUACUCUACAUGCUUAAGTT against Pnpla6, the z-score is inactive: -1.48.

Take CCCAUUCUGUAUAUAGUGCTT against Adam6a: the z-score is inactive: -0.0363.

With CCCUUAUGAUGUAUUCCUGTT against Ddr2, the z-score is inactive: -0.903.

As for GGAGCUAUACUGCUUUUCCTT against Mtmr7, the z-score was inactive: 1.61.

As to GCGGGAGCGAGAAAAACUGTT against Dhx16, the z-score was inactive: -1.35.

Turning to UCGCAUGCUCAUUGGCAUGTT against Fbll1, the z-score was inactive: -0.236.

For the sequence GCAAGCAGACUUGUCCUUCTT against Hnrnpc, the z-score is inactive: -0.155.

Turning to GCUGGAAAAGUGCUGUGGGTT against Sult1c1, the z-score was inactive: -0.494.

As to GGCUGUUCUUCAAGAAUAUTT against Trim32, the z-score was inactive: 0.607.

For “GGGAUCAUGAAACAUGUCGTT against 1700020D05Rik”, the z-score is inactive: -0.369.

On to GCAAAUACGGCGGAUGAACTT against Sesn3, for which the z-score is inactive: -1.71.

Take CUAUCACAGCCCUGUACUUTT against Olfr694: the z-score is inactive: -0.367.

On to GGGAAGAUGUGGAUGUCAUTT against Oprk1, for which the z-score is inactive: -1.05.

In the case of CGGGACCUGUGGAAUUCUCTT against Scap, the z-score is inactive: -0.689.

For the sequence GCCUGAUCCUAAAUUUCCUTT against Svs1, the z-score was inactive: -1.17.

With GCACUAAAGGGCUUUUCAUTT against Serping1, the z-score is inactive: 0.912.

As to GGCAAUUUUCAGAGAAGUUTT against Fosb, the z-score was active: -2.08.

On to GGUACUGAGGUGAGCCUCUTT against Myocd, for which the z-score is active: -2.45.

For CCUAACUUCAUCCUGUCAUTT against Tex261, the z-score is inactive: -0.0436.

Turning to GCCUCGAUGGACUCAACAUTT against Crtc3, the z-score was inactive: 0.496.

GGAGGAAAUAAAUAUUGGGTT against Clec9a: the z-score is inactive: -0.188.

Turning to CGUGCUUAAGAGUCCACUATT against H3f3a, the z-score is inactive: 0.477.

Consider CGGAUUGUAAAGAACUGCATT against Sfrp1, for which the z-score was inactive: -0.0934.

For the sequence CCCAAAUUGAUCCUAGCCUTT against Prkar1b, the z-score was inactive: 0.307.

In the case of GGUUUUCGAUCAAGCCAUUTT against Mymk, the z-score is inactive: 0.802.

For GGAGGAGAAAGAGGAUUCATT against Zfp653, the z-score is inactive: 0.0148.

In the case of GCUUGAUGGUAAAAAGGUUTT against Atl1, the z-score was inactive: -1.18.

In the case of GGCCGAAUUAAUUUCUCUGTT against Cd7, the z-score was inactive: 0.613.

For GGUUGUAGGCCAUAAAGAATT against Marchf5, the z-score is inactive: -0.544.

For CGACAAUGCCAUCGAUUCGTT against Sdc3, the z-score was inactive: 0.0399.

GGGAUGAUAGAACUUCUCATT against Phospho2: the z-score is inactive: -1.8.

For GGAGAAACCUCAGCUAAAGTT against Artn, the z-score is inactive: 0.602.

As to GUUGAACAAUCUUGUCCUGTT against Rps25, the z-score is inactive: 0.518.

As for GCACUGAACAGUUGAGAAATT against Zadh2, the z-score was inactive: 0.309.

In the case of GGGACCGUCUUAAACAUCUTT against Rsl1d1, the z-score is active: 2.92.

As to GGAAGUAAAGGGAUUUAACTT against Ankrd46, the z-score is active: 2.19.

On to GGUGAUGAUGUCCAGAAGUTT against Kdm4d, for which the z-score was inactive: -0.913.

Regarding GGCUCUGUACCAUGAGGAATT against Krt84, the z-score is inactive: 1.1.

GGUGUCCAUCUACUAUGGCTT against Prrxl1: the z-score is inactive: 0.316.

Take GGAUGAAAUCUCCAAGAAATT against Btg3: the z-score was inactive: -0.86.

For the sequence GCUGGUUUUCAUCUCUAAATT against Slc5a5, the z-score was inactive: 0.951.

For the sequence GCUGAUCAAUAACUAUGAUTT against Ezh1, the z-score is inactive: -0.866.

Consider GCCAAGAGGUUAAAAGACUTT against Rabep2, for which the z-score was inactive: -0.495.

With GGGCUCUAGAGUAAAAUAATT against H3f3b, the z-score was inactive: -1.27.

In the case of GGUCUCCAGACUUGUAUAATT against Klri2, the z-score was inactive: 0.225.

GGAAAGGAAAGCUAUGACATT against Crhr2: the z-score is inactive: -1.02.

GGAAAAGUGGACAAAAUUGTT against Ncoa6: the z-score was inactive: 1.83.

GGGCUUCUGCUUCAACAUCTT against Septin6: the z-score was inactive: 0.00764.

Consider “CCGAUAAAAGAUGACCUCATT against D17H6S56E-5”, for which the z-score was inactive: -0.241.

With CCCAGACCAAUUCAUCUUATT against Ifngr2, the z-score was inactive: 0.0218.

Consider GGACUACAUGUUUGAAACCTT against Ugt2a1, for which the z-score was inactive: -1.21.

In the case of GCUUUGUUUUAGGACCUUUTT against Rdh1, the z-score was inactive: 0.233.

In the case of GGAAUGUGGAUAAAAACGATT against Ncam1, the z-score was inactive: 1.09.

As to CCCAUUCCUAGGAUUAUCGTT against Arf6, the z-score was inactive: -0.384.

For the sequence GGAUGGUCAUAAGGAUCAATT against Adgrg7, the z-score is inactive: 0.377.

Take GGUCUGAAAGGCAUGAUACTT against Adam4: the z-score is inactive: 0.065.

Turning to GGAACGUAUGAAGUUAAACTT against Cd80, the z-score is inactive: 0.428.

With GGCAUGUGGUUGAAGGCCUTT against Fank1, the z-score is inactive: -0.337.

Consider GCUGUUCGUGAGGAUAACCTT against Yipf1, for which the z-score is inactive: 1.2.

On to GGAUGUUGAACAAAAGAAGTT against Abce1, for which the z-score was inactive: -0.863.

Take GUCUCCACUGGUGCCUAUATT against Higd1b: the z-score is inactive: -0.095.

On to GGUGGUUUAAAGACUUGAUTT against D1Pas1, for which the z-score is inactive: -0.683.

In the case of GGUAGCUGUCCAGGGUUAUTT against Alkbh6, the z-score was inactive: -1.44.

Take GGCCAAGAAGACUUAUGUATT against Tufm: the z-score was inactive: -1.17.

For GCUCAUGUCAGGAGAGAGUTT against Ocel1, the z-score was active: -2.41.

For CCAAUGCCGCCAGAAGUUATT against Siah2, the z-score is inactive: 0.295.

For GGCCGCUACCUUUAUGAACTT against Prpf3, the z-score is inactive: 0.219.

For GGACUGGUUCACUUUGUGGTT against Cox7a2l, the z-score is inactive: 0.629.

Take CCCAGUAAUAUGAAAAGAGTT against Gucy2f: the z-score is inactive: -0.408.

Take GGAAGAUUCAUGAGAUAUUTT against Prdm5: the z-score is inactive: -0.914.

As to CGGUGUUCAACUGCACUUUTT against Thsd1, the z-score was inactive: 0.0704.

In the case of GCACACUCACUUGGUUCGUTT against Dsg2, the z-score is inactive: 0.684.

Turning to CCUCAUGGAUGUUCGUAGATT against P2ry10, the z-score was inactive: 0.452.

Regarding CGGACUUGAGAGCAGAACCTT against Oit1, the z-score is active: 2.02.

Take GGUGAUUGACACCAAAUCUTT against Slk: the z-score was inactive: -0.652.

The values are drawn from PubChem BioAssay AID1508600 (Functional Genomics Laboratory (NCATS/FGL), 2020).
